# PubChem BioAssay AID1508597 | Cure First, 2020
# Assay: 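Survival screen with siRNA in ovarian cancer cells derived from patients, with or without rucaparib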 (primary screen)
# System: human ovarian carcinoma lines grown from tumours: OCI-P5x (papillary serous) and OCI-C5x (clear cell)
# Reagent: siRNA pool against human genes, 1.25 pmol siRNA per well
# Timing: 72 h or 96 h, depending on the cell culture
# Conditions: rucaparib 20 µM (about IC30) or vehicle, present until read-out
# Rucaparib or vehicle: Rucaparib
# Cell line: OCI-C5x (clear cell)
# Read-out: 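ATP luminescence measured at 72 or 96 h according to the culture, then normalised and expressed as percent viability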
# Scale: viability, normalised: higher = more viable cells remaining
# Active means: 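a well counts as a hit if its normalised viability is under 80 percent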
# Meaning of the calls: active = viability under 80%; inactive = viability 80% or more
# Shown is a random part of the about 2,100 reagents, in one setting of the screen. 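Calls flag viability under 80% in either arm, not effects specific to rucaparib; the reference for percent is not stated.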 Entries without a mark were called inactive. The record does not give: the 100% reference.
Gene,technical replicate,"viability, normalised (%)"
OGG1 (8-oxoguanine DNA glycosylase),1,69.8 (active)
OGG1 (8-oxoguanine DNA glycosylase),2,58.8 (active)
OGG1 (8-oxoguanine DNA glycosylase),3,45.7 (active)
FANCI (FA complementation group I),1,48.8 (active)
FANCI (FA complementation group I),2,45.7 (active)
FANCI (FA complementation group I),3,46 (active)
PDE1B (phosphodiesterase 1B),1,58.3 (active)
PDE1B (phosphodiesterase 1B),2,40.5 (active)
PDE1B (phosphodiesterase 1B),3,56.4 (active)

Ordered by “viability, normalised (%)” (lowest first): 2 of the entries above
Gene,technical replicate,"viability, normalised (%)"
OGG1 (8-oxoguanine DNA glycosylase),3,45.7 (active)
FANCI (FA complementation group I),1,48.8 (active)

The list goes on.
Gene,technical replicate,"viability, normalised (%)"
PARP14 (poly(ADP-ribose) polymerase family member 14),1,29.5 (active)
PARP14 (poly(ADP-ribose) polymerase family member 14),2,29.2 (active)
PARP14 (poly(ADP-ribose) polymerase family member 14),3,28.7 (active)
CLDN1 (claudin 1),1,40.6 (active)
CLDN1 (claudin 1),2,47.4 (active)
CLDN1 (claudin 1),3,45.3 (active)
"PFKFB1 (6-phosphofructo-2-kinase/fructose-2,6-biphosphatase 1)",1,49.4 (active)
"PFKFB1 (6-phosphofructo-2-kinase/fructose-2,6-biphosphatase 1)",2,69.6 (active)
"PFKFB1 (6-phosphofructo-2-kinase/fructose-2,6-biphosphatase 1)",3,39.2 (active)
TNK1 (tyrosine kinase non receptor 1),1,48.3 (active)
TNK1 (tyrosine kinase non receptor 1),2,59.2 (active)
TNK1 (tyrosine kinase non receptor 1),3,37.9 (active)
SGF29 (SAGA complex associated factor 29),1,97.6
SGF29 (SAGA complex associated factor 29),2,58.6 (active)
SGF29 (SAGA complex associated factor 29),3,101
